Measurements as given in the supplement of paper PMC12067093, “Discovery and optimisation of a covalent ligand for TRIM25 and its application to targeted protein ubiquitination” (Chemical Science, 2025).
This is one part of the list.

Chains of the proteins cited; added tags and fusions are not shown. Lines headed by an entry give the natural chain unless they say otherwise; changes in a name come on top.
UniProt P49454: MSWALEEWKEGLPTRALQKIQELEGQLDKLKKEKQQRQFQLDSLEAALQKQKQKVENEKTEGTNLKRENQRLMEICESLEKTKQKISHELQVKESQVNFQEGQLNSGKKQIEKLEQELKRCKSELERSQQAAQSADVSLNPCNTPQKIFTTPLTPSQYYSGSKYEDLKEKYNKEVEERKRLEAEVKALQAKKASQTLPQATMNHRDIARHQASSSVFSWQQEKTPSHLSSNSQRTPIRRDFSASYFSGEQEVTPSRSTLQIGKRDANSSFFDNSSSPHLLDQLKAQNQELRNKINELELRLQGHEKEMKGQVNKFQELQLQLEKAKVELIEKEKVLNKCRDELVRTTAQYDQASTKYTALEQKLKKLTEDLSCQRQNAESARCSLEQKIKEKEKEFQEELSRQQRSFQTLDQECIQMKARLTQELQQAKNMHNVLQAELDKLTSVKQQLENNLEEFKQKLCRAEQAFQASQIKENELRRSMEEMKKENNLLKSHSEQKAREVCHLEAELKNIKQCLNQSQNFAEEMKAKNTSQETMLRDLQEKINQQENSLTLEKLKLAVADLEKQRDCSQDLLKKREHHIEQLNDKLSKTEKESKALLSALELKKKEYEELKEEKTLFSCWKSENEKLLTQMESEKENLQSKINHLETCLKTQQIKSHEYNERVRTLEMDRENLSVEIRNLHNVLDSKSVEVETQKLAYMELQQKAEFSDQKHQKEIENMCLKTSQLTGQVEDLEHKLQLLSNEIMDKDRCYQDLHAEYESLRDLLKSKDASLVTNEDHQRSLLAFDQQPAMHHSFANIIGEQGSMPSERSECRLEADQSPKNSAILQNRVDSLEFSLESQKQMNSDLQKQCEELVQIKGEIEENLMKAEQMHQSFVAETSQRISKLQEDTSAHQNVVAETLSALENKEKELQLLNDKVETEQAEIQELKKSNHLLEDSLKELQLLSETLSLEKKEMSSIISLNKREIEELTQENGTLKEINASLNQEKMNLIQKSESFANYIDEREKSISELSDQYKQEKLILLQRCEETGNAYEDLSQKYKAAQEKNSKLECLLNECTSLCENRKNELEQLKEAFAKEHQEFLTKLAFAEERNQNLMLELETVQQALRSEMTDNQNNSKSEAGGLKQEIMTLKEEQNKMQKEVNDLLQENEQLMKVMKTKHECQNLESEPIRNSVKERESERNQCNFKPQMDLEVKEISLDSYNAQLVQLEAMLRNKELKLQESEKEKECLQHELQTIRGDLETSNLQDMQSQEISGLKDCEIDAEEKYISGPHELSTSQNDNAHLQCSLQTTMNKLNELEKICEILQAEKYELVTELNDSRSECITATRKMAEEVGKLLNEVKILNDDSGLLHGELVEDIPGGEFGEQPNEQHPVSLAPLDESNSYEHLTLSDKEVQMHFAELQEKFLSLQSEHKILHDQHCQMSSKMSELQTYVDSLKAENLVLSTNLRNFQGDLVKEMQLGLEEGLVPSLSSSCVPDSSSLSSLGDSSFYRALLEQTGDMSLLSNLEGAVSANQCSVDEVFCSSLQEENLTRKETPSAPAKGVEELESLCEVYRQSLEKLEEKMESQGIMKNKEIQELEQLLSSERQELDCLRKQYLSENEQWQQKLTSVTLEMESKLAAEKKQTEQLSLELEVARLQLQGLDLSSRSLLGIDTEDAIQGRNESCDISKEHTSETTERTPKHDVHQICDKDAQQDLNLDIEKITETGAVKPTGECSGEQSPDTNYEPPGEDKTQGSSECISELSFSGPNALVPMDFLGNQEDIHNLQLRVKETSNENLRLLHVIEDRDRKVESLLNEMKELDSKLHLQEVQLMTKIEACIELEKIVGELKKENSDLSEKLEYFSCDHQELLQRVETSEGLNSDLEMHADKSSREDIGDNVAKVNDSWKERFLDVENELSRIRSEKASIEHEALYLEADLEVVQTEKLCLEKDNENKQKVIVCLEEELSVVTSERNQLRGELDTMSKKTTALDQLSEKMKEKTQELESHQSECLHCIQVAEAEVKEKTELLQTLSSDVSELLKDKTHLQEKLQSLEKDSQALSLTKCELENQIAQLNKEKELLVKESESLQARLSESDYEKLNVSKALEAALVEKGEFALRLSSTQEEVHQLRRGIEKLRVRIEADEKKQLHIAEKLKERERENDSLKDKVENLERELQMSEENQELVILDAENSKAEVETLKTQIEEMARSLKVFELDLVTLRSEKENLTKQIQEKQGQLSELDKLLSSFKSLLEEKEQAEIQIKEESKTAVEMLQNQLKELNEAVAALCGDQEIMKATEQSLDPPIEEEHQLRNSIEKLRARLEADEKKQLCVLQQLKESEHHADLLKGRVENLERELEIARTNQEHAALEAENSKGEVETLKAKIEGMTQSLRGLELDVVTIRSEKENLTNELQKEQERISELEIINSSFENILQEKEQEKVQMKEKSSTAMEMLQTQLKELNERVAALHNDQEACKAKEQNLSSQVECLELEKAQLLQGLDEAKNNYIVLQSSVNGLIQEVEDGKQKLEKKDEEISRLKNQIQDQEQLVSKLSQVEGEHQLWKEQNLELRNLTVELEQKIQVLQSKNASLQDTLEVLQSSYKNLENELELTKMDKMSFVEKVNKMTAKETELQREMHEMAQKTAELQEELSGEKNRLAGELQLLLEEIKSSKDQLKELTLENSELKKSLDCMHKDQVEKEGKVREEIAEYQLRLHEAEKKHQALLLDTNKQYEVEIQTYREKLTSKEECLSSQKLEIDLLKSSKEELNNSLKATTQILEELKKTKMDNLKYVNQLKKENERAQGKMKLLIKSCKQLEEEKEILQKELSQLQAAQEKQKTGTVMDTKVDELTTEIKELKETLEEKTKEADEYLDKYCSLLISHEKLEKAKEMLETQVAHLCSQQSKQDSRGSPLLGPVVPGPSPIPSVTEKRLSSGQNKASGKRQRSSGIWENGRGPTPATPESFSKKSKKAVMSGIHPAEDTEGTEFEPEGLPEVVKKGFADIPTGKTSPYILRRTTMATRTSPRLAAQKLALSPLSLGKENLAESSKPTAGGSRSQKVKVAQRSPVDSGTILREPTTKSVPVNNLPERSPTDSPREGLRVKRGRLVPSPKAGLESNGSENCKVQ
UniProt Q99832: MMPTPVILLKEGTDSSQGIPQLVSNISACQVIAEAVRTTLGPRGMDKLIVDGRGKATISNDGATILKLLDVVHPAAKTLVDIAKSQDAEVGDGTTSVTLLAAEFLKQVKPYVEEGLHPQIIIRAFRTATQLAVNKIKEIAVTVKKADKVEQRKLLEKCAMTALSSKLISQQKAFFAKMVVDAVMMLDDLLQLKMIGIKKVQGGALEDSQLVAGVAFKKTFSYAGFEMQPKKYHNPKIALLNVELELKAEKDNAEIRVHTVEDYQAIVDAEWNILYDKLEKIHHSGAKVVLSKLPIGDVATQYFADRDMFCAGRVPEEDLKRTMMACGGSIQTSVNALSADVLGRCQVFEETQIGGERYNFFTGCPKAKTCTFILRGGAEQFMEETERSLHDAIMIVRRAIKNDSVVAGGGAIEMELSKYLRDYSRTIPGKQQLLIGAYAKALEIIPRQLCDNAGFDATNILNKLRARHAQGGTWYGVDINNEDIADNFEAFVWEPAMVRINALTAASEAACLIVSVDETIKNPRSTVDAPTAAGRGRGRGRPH
UniProt Q7L3B6: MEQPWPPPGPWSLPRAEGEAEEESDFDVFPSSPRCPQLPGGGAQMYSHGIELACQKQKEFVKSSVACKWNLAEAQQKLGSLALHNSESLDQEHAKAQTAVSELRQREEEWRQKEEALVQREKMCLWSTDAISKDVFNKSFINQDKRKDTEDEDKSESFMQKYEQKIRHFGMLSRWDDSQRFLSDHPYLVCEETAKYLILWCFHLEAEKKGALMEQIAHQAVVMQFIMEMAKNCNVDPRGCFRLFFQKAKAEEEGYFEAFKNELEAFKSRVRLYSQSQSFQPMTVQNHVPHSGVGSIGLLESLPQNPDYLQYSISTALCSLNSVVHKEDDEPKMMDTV
UniProt Q00536: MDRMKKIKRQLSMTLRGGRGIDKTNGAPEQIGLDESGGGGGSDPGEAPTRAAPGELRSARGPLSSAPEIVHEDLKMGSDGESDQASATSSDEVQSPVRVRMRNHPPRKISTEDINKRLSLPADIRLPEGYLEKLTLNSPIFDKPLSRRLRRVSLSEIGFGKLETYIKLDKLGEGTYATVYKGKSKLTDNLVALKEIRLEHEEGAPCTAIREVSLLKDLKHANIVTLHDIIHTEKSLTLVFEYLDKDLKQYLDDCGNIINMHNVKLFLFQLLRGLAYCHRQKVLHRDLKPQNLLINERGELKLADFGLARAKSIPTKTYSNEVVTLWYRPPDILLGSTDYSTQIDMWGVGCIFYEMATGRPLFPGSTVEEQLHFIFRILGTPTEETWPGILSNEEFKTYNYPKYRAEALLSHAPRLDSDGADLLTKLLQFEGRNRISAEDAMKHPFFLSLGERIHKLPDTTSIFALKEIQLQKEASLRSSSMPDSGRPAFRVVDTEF
UniProt P40227, whole entry, looked up: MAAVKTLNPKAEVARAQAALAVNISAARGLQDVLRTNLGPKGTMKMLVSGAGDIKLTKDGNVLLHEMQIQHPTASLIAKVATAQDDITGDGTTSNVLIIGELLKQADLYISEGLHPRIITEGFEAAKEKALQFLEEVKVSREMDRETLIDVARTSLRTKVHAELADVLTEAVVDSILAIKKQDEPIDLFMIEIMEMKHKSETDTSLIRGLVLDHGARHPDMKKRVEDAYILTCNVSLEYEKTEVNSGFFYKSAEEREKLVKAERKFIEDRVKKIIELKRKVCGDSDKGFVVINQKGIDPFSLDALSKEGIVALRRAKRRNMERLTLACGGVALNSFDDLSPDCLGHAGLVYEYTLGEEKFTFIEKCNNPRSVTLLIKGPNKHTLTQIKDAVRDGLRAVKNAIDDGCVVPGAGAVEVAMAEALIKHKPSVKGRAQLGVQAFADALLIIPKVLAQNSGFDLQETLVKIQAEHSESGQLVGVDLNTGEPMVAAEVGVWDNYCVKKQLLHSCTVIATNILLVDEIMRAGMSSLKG
UniProt Q92879: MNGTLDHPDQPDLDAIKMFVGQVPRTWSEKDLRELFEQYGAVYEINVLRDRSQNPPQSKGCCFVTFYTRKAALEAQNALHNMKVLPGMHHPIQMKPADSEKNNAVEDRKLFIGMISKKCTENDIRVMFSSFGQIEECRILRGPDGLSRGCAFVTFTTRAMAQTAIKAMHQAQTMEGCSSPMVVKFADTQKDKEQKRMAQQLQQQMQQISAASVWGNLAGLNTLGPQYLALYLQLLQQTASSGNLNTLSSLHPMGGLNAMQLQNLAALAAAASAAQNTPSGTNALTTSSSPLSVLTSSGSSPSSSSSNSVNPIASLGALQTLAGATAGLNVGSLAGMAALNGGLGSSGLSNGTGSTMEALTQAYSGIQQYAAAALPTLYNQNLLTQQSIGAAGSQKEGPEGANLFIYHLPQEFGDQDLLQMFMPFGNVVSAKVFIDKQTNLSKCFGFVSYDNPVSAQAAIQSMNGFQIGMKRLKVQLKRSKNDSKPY
UniProt Q9UJX2, whole entry, looked up: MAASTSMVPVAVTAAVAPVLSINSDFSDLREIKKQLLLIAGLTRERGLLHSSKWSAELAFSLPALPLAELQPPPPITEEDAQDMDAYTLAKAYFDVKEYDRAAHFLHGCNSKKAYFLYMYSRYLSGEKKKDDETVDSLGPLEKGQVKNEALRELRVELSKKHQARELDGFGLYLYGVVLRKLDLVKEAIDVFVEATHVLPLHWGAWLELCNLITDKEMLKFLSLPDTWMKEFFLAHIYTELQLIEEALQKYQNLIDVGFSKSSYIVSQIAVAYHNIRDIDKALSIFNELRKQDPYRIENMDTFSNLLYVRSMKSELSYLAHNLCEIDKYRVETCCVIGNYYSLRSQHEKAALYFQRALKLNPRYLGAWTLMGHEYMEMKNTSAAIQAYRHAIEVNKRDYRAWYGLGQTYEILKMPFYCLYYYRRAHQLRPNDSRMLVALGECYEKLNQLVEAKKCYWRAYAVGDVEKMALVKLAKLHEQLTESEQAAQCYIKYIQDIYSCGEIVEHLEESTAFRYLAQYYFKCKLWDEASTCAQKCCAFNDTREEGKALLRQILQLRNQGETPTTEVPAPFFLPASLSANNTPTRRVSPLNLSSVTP
UniProt Q96GN5: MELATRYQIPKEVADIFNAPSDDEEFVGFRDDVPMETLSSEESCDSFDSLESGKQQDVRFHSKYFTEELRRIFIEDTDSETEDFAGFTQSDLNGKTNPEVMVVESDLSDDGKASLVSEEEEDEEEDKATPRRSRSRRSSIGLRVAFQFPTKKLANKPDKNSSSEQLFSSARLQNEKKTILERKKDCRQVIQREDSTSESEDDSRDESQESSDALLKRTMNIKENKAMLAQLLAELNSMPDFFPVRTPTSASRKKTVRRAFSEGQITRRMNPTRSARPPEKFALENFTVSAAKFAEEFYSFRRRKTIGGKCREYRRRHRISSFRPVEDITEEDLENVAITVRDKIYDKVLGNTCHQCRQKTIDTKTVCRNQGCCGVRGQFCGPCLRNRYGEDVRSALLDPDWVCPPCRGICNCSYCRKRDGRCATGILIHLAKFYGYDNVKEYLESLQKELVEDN

Compound: Cc1cc(ccc1-c1ccccc1)C(=O)N1CCCN(CC1)C(=O)CCl [compound 10]
Test: probe-labelled cysteine peptide fold change vs DMSO (competition) (log2 fold change); higher = less target engagement (more negative = stronger competition)
Settings: THP-1, incubation time: 4 h
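Note: competitive profiling in live THP-1 cells: cysteine peptides tagged with an iodoacetamide desthiobiotin (IA-DTB) probe, intensity after compound treatment relative to DMSO-treated cells.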

Target	probe-labelled cysteine peptide fold change (10 µM)	probe-labelled cysteine peptide fold change (50 µM)
CENPF_P49454_503_EVCHLEAELK (UniProt P49454)	0.255	0.303
CCT7_Q99832_364_YNFFTGCPK (UniProt Q99832)	-0.23	-0.0387
CDC37L1_Q7L3B6_190_FLSDHPYLVCEETAK (UniProt Q7L3B6)	-0.0727	0.207
CDK16_Q00536_206_EIRLEHEEGAPCTAIR (UniProt Q00536)	-0.185	-0.768
CEP350_Q5VT06_2910_RVTQQPCETLLAVPHTAEEVEILVHNAAEELWK (UniProt Q5VT06)	-0.0741	-0.0102
CFAP20_Q9Y6A4_61_ITDNDIQSLVLEIEGTNVSTTYITCPADPKK (UniProt Q9Y6A4)	0.0394	0.0434
CCT6A_P40227_282_VCGDSDK (UniProt P40227)	0.0167	0.153
CEP152_O94986_791_TLDCGSQTDQVTTSDVISK (UniProt O94986)	-0.00536	-0.0146
CENPF_P49454_1426_ILHDQHCQMSSK (UniProt P49454)	0.127	0.137
CELF1_Q92879_119_CTENDIR (UniProt Q92879)	0.0497	0.276
CENPF_P49454_1291_YISGPHELSTSQNDNAHLQCSLQTTMNK (UniProt P49454)	0.101	-0.0749
CDC23_Q9UJX2_109_AAHFLHGCNSK (UniProt Q9UJX2)	-0.107	0.191
CENPN_Q96H22_325_SLAPAGIADAPLSPLLTCIPNKR (UniProt Q96H22)	-0.161	-0.132
CCT8_P50990_148_KAHEILPNLVCCSAK (UniProt P50990)	-0.0972	-0.612
CDCA7L_Q96GN5_383_GQFCGPCLR (UniProt Q96GN5)	-0.000758	-0.185
CENPF_P49454_1233_ECLQHELQTIR (UniProt P49454)	0.051	0.17
CEP192_Q8TEP8_1828_LTSNCEIR (UniProt Q8TEP8)	0.121	0.145

An excerpt of these results, with each value named:
CFAP20_Q9Y6A4_61_ITDNDIQSLVLEIEGTNVSTTYITCPADPKK (UniProt Q9Y6A4)
  probe-labelled cysteine peptide fold change (10 µM): 0.0394
  probe-labelled cysteine peptide fold change (50 µM): 0.0434
CCT6A_P40227_282_VCGDSDK (UniProt P40227)
  probe-labelled cysteine peptide fold change (10 µM): 0.0167
  probe-labelled cysteine peptide fold change (50 µM): 0.153
